These are yes or no findings as the source states them, for the method shown. Some entries that bind do so weakly or less than the wild type.
T1: cytochrome CYP11A1 (P450scc) (bovine, UniProt P00189 40-520)
T1 construct: The same protein was used either untreated (oligomeric, non-monomerized) or after incubation with 4-12% Emulgen 913 (monomerized); the assays tell the two states apart; also called CYP11A1mon; monomerized CYP11A1; source: isolated from bovine adrenal glands
T1 sequence (looked up): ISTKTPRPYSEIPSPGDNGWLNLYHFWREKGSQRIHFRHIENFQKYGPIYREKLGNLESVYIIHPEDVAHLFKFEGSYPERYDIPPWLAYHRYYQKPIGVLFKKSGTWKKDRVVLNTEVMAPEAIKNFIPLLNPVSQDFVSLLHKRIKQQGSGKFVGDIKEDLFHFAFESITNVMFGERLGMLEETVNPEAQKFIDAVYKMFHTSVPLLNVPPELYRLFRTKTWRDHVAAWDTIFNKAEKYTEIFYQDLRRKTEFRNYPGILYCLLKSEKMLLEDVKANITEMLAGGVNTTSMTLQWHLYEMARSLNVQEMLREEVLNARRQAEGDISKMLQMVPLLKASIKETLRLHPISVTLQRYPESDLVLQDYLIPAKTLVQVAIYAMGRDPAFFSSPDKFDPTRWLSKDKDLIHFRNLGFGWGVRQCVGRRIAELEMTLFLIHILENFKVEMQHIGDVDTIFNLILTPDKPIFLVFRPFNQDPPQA

T2: adrenodoxin (UniProt P00257)
T2 sequence: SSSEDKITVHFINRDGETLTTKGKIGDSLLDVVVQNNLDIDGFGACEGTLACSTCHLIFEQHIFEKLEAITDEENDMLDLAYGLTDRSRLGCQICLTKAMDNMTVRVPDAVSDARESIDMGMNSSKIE


How the values were obtained:
[1] = target: adrenodoxin reductase (UniProt P08165); test: photon correlation spectroscopy; single proteins in 50 mM KP pH 7.4; AdR 5 μM, Ad 0.2 mM; light scattering at 90°; hydrodynamic diameter; both purified
[2] = target: adrenodoxin reductase (UniProt P08165); test: atomic force microscopy; single proteins: 5 μl of 1 μM Ad or 1 μM AdR in 50 mM KP pH 7.4 on freshly cleaved mica; tapping mode in air; height distribution; both purified
[3] = target: T1, cytochrome CYP11A1 (P450scc); test: atomic force microscopy; ternary mixture: 10 μl each of 7.5 μM monomeric CYP11A1 (containing 1.5% Emulgen 913), Ad and AdR in 50 mM KP pH 7.4, incubated 10 min, diluted 2.5 times, adsorbed on mica; tapping mode in air; height distribution compared with those of the binary mixtures; both purified
[4] = target: T2, adrenodoxin; test: as above
[5] = target: T2, adrenodoxin; test: photon correlation spectroscopy; single proteins in 50 mM KP pH 7.4; AdR 5 μM, Ad 0.2 mM; light scattering at 90°; hydrodynamic diameter; both purified
[6] = target: T2, adrenodoxin; test: atomic force microscopy; single proteins: 5 μl of 1 μM Ad or 1 μM AdR in 50 mM KP pH 7.4 on freshly cleaved mica; tapping mode in air; height distribution; both purified

| binding [1] | binding [2] | binding [3] | binding [4] | binding [5] | binding [6] | Binder |
| --- | --- | --- | --- | --- | --- | --- |
| no binding (tested: 5 μM) | no binding (tested: 1 μM) | binds | binds | – | – | adrenodoxin reductase (enzyme, UniProt P08165 33-492) STQEQTPQICVVGSGPAGFYTAQHLLKHHSRAHVDIYEKQLVPFGLVRFGVAPDHPEVKNVINTFTQTARSDRCAFYGNVEVGRDVTVQELQDAYHAVVLSYGAEDHQALDIPGEELPGVFSARAFVGWYNGLPENRELAPDLSCDTAVILGQGNVALDVARILLTPPDHLEKTDITEAALGALRQSRVKTVWIVGRRGPLQVAFTIKELREMIQLPGTRPMLDPADFLGLQDRIKEAARPRKRLMELLLRTATEKPGVEEAARRASASRAWGLRFFRSPQQVLPSPDGRRAAGIRLAVTRLEGIGEATRAVPTGDVEDLPCGLVLSSIGYKSRPIDPSVPFDPKLGVVPNMEGRVVDVPGLYCSGWVKRGPTGVITTTMTDSFLTGQILLQDLKAGHLPSGPRPGSAFIKALLDSRGVWPVSFSDWEKLDAEEVSRGQASGKPREKLLDPQEMLRLLGH |
| – | – | – | – | no binding (tested: 0.2 mM) | no binding (tested: 1 μM) | adrenodoxin (natural protein, UniProt P00257 59-186, looked up, adrenodoxin (Ad), recombinant; source: E. coli BL21DE3, purified after sonification) SSSEDKITVHFINRDGETLTTKGKIGDSLLDVVVQNNLDIDGFGACEGTLACSTCHLIFEQHIFEKLEAITDEENDMLDLAYGLTDRSRLGCQICLTKAMDNMTVRVPDAVSDARESIDMGMNSSKIE |
| – | – | – | binds | – | – | cytochrome CYP11A1 (P450scc) (enzyme, UniProt P00189 40-520) ISTKTPRPYSEIPSPGDNGWLNLYHFWREKGSQRIHFRHIENFQKYGPIYREKLGNLESVYIIHPEDVAHLFKFEGSYPERYDIPPWLAYHRYYQKPIGVLFKKSGTWKKDRVVLNTEVMAPEAIKNFIPLLNPVSQDFVSLLHKRIKQQGSGKFVGDIKEDLFHFAFESITNVMFGERLGMLEETVNPEAQKFIDAVYKMFHTSVPLLNVPPELYRLFRTKTWRDHVAAWDTIFNKAEKYTEIFYQDLRRKTEFRNYPGILYCLLKSEKMLLEDVKANITEMLAGGVNTTSMTLQWHLYEMARSLNVQEMLREEVLNARRQAEGDISKMLQMVPLLKASIKETLRLHPISVTLQRYPESDLVLQDYLIPAKTLVQVAIYAMGRDPAFFSSPDKFDPTRWLSKDKDLIHFRNLGFGWGVRQCVGRRIAELEMTLFLIHILENFKVEMQHIGDVDTIFNLILTPDKPIFLVFRPFNQDPPQA |

From article PMC3212078, “Atomic Force Microscopy Study of Protein–Protein Interactions in the Cytochrome CYP11A1 (P450scc)-Containing Steroid Hydroxylase System” (Nanoscale Research Letters, 2010)
